# Reference: the supplement of paper PMC3334620
# In all, about 33,000 sequences were measured (“E-score (-0.5 to 0.5)”: median about -0.0059, highest 2% from about 0.26 on). Some of the results follow.
# Molecular target: T1, Cin5 (UniProt P40917)
# T1 sequence: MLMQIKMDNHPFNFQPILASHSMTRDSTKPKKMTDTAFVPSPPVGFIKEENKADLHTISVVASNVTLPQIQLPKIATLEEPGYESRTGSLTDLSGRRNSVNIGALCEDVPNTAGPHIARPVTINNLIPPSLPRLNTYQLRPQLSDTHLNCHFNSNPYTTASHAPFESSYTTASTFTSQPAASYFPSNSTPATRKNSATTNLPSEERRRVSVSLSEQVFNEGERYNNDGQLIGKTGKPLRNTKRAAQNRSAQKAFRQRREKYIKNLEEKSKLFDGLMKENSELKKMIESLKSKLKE
# Assay: PBM E-score (8-mer binding enrichment) (E-score (-0.5 to 0.5)); higher = stronger / more preferred TF binding
# Settings: protein concentration: 100 nM; construct: GST-full length
# Description: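 Universal 'all 10-mer' protein binding microarrays (Agilent AMADID 015681) probed with GST-tagged S. cerevisiae TFs (full-length or DBD) made by in vitro transcription/translation (PURExpress), about 100-200 nM. Bound TF was detected with fluorescent anti-GST. Each ungapped 8-mer (which stands for itself and its reverse complement) is scored by the PBM enrichment score (E-score), a modified Wilcoxon-Mann-Whitney statistic from -0.5 to +0.5, computed with the Universal PBM Analysis Suite. Scale: above 0.35 generally sequence-specific binding.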
row,Sequence,PBM E-score
1,ACCGGCTG,-0.125
2,ACGGAACA,0.2
3,CAAGCTTC,-0.163
4,CGATCTAG,-0.115
5,ACTCCGAT,0.0689
6,ATGGGCTC,-0.0471
7,AGACCTTG,-0.125
8,AGTTCTGC,-0.00917
9,AAACCTCC,-0.161
10,ACTAATAA,0.221
11,CGCGTACG,0.00467
12,AGACTTCG,-0.0328
13,ACGCCTAA,-0.0107
14,ACCCCCAA,-0.326
15,CGTGAGTC,-0.192
16,CGCCCATC,0.0922
17,GCTACGGA,-0.165
18,CAACACGC,-0.0297
19,AAACAGCA,0.0422
20,AACAAAGA,0.0369
21,CTGGAGTA,0.0132
22,CTGTGCGA,-0.0293
23,AAAGCGCG,-0.0579
24,GCAATATA,0.185
25,CTAGACCC,-0.123

row,Sequence,PBM E-score
1,TGTTTCAA,0.114
2,ATTTCCGA,0.118
3,AAGTCTGC,-0.286
4,AAGCACAC,0.00488
5,ATCCCGGC,0.0403
6,CTATCGGA,0.00315
7,CAGGCTGG,-0.223
8,CTAATCCC,0.0342
9,AAAGCCGA,-0.0832
10,CCTACCTA,-0.0447
11,CAGAGCCC,-0.12
12,CCGTGGGA,-0.224
13,CATGATCC,-0.143
14,GCGCCGAA,0.00697
15,ACCCAGCC,-0.237
16,TAGTTAAA,0.108
17,GGCGGTCA,-0.297
18,GAGGGTCC,-0.346
19,AACTCATG,0.148
20,AATTGCAG,0.0302
21,CGTATGTA,0.0771
22,TACTCACA,0.0839
23,ACGGCACG,-0.0447
24,CGAGCGAA,0.0585
25,CGTCGTAG,-0.0874

row,Sequence,PBM E-score
1,GTCGAGAC,-0.0383
2,TTGCCCAA,-0.0922
3,AGTCCGTG,-0.145
4,CCTTGACC,-0.0487
5,GGCGAGAA,0.153
6,CTGAACTA,-0.012
7,TAGTCAGA,0.00274
8,CGCCCATA,0.132
9,GCCGTGTA,0.0307
10,CACATAAA,0.183
11,ATTGATAC,0.247
12,GGTGTGAC,-0.243
13,CAACACTC,0.105
14,CATTCTCG,0.044
15,CCATGGGC,-0.101
16,GCCGACCC,-0.322
17,ACTGTTGC,0.0279
18,GAGTCAAA,-0.121
19,AGCTAAGA,-0.0669
20,ACGTCATC,0.259
21,GGAGAGGA,-0.226
22,AGCAAATC,0.106
23,CCAATCCG,0.156
24,AGGGTCAC,-0.217
25,GAGGGTTA,-0.0902

row,Sequence,PBM E-score
1,TAAATGTA,0.191
2,CCCCGCAC,-0.147
3,AATGTAAC,0.117
4,AAATCTCA,0.156
5,TGACCGCA,-0.0789
6,CAGAATAC,0.068
7,CTCGAAGA,-0.155
8,ATCTAGAC,-0.125
9,GTCTGAGA,-0.205
10,CATCTCAA,0.0545
11,GACTTCCA,-0.132
12,CGAGTGAA,-0.0408
13,GAAATGTA,0.143
14,CGTCTGCA,-0.168
15,CGCTCAGC,-0.0482
16,AGATATGA,0.272
17,CAGATACG,0.0732
18,AAACGCCT,-0.171
19,CCACGTCA,0.037
20,GATCGTGA,-0.0171
21,TGAATTCA,0.133
22,AGATGTTA,-0.0463
23,AAAAAGTT,0.0395
24,GGACATCA,0.0421
25,AAGGATAA,0.121

# Single entries from above:
# Value of CAGATACG under PBM E-score: 0.0732
# Value of CTCGAAGA under PBM E-score: -0.155
# Value of TGTTTCAA under PBM E-score: 0.114
# Value of AACAAAGA under PBM E-score: 0.0369
# Value of GTCGAGAC under PBM E-score: -0.0383
# Value of CATTCTCG under PBM E-score: 0.044
# Value of TAGTTAAA under PBM E-score: 0.108

# (next part)

row,Sequence,PBM E-score
1,ACCGGCTA,-0.145
2,GGAAGCGA,0.0828
3,GCTTGACC,-0.0611
4,AAAGGAGA,-0.131
5,ATGTCCGG,-0.0461
6,AGAAACGC,-0.112
7,AAAGACTC,-0.0736
8,CCATGCCG,0.0408
9,ATATTAGA,0.159
10,GTGTTAAA,-0.121
11,GGCAGGTA,-0.258
12,CCAAGGTA,-0.105
13,AATGGAGG,-0.0517
14,AGATATAC,0.077
15,ACAGGAGG,-0.287
16,GCGACGGA,-0.0442
17,ATAGAGCC,-0.113
18,GTTAGGTA,0.242
19,ATATCGTA,0.222
20,AAGGACAG,-0.0636
21,CTGCGAAC,-0.112
22,ACATAATG,0.204
23,ATAATTAC,0.365
24,ACGATAAT,0.162
25,GTCTTCCA,-0.173

row,Sequence,PBM E-score
1,ATCCGCAG,0.19
2,CGCTATAG,-0.123
3,GCACGTAA,-0.00694
4,GTAGTAAA,0.149
5,ACAACTAC,0.193
6,GTCTTCAC,-0.199
7,CTATCAAG,0.0672
8,GGGGCCTA,-0.347
9,AAACCCCA,0.176
10,ACGCGCGC,0.158
11,CTATCAGA,-0.0903
12,CTGTGGTC,-0.174
13,AGCATTAA,0.209
14,TGTATTAA,0.202
15,ACGACCAG,-0.0144
16,AGGCTGGG,-0.199
17,ACCTCTAA,-0.142
18,AATACATG,0.195
19,CGATATTC,0.0444
20,CTGTGATA,0.0273
21,ATCCGAAT,0.236
22,ATAGACTG,0.0413
23,CGAAACTC,-0.132
24,AAGGATCT,-0.142
25,CCGGAACG,0.13

row,Sequence,PBM E-score
1,AGCAGGAA,-0.0205
2,GCAAGAGA,-0.0579
3,ACCGATTC,-0.131
4,GCTCGTAC,0.0691
5,GGCGGTTA,-0.0396
6,GAATCATC,0.0234
7,CATCTGAA,0.0026
8,AGTCAGGC,0.135
9,CGTCGTCA,0.0152
10,TCGAACCA,0.00221
11,AGAGAGAT,0.0741
12,CCGCTTCA,-0.0755
13,ATGGGTTA,0.179
14,GGCCCGAA,-0.00867
15,AGACCCAC,-0.00266
16,ATTTTAGA,-0.0939
17,GGTCCAAA,-0.169
18,CAGACTTC,-0.168
19,GCAGACAA,0.108
20,AGGAGGTA,-0.18
21,AGCACGCC,-0.0687
22,AGGAACGA,-0.244
